Here are results for three molecules from article doi:10.1101/2020.09.10.291013.

Amino acid sequences for entries named in this document (tags omitted).
UniProt O88895: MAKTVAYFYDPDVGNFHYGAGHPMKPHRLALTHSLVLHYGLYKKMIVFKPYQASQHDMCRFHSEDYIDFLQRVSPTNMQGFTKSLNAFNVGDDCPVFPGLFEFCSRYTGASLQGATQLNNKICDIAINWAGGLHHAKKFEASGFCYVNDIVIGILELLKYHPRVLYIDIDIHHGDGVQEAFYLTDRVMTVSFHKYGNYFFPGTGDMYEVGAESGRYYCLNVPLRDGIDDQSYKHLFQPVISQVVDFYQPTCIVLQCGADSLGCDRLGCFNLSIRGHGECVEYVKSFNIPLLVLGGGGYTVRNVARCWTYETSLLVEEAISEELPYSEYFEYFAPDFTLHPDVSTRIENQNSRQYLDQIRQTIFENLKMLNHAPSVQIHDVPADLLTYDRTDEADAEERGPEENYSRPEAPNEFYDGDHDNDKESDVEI
UniProt Q60974: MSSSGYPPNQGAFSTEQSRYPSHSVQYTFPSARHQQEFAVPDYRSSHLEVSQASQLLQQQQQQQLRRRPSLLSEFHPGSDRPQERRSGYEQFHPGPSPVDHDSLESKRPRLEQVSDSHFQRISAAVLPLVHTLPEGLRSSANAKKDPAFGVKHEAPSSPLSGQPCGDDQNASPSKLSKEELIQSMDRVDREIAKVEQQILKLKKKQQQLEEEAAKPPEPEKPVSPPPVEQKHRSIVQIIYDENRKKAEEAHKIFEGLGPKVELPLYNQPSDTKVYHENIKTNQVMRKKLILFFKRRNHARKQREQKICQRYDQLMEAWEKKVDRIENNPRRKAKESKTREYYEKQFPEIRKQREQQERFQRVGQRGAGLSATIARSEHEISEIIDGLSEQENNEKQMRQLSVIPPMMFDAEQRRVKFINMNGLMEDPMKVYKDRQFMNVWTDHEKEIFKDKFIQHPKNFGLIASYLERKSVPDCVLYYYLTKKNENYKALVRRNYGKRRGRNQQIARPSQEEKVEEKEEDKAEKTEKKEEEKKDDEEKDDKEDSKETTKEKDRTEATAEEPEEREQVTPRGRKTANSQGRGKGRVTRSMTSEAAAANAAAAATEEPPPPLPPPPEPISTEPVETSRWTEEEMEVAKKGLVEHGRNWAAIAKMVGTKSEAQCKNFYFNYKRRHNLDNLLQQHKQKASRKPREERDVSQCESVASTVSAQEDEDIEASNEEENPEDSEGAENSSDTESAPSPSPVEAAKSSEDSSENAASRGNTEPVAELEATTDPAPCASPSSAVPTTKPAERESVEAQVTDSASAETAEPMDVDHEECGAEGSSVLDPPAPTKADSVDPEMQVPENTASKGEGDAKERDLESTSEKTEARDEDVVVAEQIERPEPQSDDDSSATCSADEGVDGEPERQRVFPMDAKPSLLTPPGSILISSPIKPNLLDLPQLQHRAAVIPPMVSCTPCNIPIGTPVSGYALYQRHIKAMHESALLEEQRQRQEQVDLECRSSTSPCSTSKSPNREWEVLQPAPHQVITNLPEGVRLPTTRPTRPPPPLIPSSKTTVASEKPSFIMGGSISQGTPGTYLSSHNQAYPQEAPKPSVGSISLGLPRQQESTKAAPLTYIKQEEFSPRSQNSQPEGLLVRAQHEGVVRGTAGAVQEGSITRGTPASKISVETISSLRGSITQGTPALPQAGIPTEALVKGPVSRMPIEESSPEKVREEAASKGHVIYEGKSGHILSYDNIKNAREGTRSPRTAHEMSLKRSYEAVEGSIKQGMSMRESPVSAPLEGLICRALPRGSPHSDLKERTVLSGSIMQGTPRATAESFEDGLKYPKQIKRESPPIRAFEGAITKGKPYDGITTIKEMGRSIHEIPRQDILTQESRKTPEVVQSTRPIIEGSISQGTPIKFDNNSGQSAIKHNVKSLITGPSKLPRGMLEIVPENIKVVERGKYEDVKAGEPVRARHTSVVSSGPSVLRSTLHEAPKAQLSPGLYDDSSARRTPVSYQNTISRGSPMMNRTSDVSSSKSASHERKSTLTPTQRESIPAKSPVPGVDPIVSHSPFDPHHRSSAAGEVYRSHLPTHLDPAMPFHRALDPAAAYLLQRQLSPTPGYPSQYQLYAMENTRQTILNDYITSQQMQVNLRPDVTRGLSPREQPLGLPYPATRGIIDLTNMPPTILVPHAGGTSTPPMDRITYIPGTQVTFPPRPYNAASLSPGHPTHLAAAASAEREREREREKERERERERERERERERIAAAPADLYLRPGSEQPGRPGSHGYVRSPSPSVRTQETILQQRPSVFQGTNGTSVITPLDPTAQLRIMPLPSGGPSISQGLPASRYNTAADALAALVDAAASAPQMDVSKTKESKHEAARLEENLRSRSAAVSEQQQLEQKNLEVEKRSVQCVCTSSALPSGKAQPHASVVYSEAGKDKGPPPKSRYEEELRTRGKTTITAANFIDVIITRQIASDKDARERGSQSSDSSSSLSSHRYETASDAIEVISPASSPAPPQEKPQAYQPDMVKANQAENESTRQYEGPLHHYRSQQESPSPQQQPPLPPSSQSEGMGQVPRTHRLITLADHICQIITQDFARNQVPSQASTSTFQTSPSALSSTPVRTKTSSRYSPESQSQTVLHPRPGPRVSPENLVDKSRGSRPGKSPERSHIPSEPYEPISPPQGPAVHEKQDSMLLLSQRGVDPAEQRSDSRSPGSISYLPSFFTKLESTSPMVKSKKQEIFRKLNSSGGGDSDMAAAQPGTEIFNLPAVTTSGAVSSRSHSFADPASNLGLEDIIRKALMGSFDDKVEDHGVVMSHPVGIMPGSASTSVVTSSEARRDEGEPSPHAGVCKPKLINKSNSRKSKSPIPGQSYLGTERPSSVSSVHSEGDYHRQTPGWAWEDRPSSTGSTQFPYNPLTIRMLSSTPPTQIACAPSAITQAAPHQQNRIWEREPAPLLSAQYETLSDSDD
UniProt P45448: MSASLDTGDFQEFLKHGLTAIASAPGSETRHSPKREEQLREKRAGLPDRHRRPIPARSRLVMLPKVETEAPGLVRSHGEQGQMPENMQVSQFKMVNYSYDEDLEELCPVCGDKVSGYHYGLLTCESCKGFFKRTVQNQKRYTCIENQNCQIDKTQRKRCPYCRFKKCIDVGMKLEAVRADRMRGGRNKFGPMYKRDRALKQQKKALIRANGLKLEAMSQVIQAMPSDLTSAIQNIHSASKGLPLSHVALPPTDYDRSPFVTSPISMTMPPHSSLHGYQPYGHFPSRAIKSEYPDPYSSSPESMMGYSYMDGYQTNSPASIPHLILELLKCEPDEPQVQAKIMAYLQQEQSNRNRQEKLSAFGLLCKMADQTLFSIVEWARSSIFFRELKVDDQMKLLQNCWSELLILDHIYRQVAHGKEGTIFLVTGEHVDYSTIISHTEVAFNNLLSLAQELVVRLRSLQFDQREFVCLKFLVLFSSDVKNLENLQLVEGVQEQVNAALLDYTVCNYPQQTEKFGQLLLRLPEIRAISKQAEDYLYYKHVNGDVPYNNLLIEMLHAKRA

Test in all cases: affinity purification with mass spectrometry
The target of experiment [1] is Hdac3 (mouse (endogenous in G6C18 mESCs)) (UniProt O88895).
The next experiment deals with T1, N-3xFLAG-3GS-Dax1 (UniProt Q61066).
T1 sequence: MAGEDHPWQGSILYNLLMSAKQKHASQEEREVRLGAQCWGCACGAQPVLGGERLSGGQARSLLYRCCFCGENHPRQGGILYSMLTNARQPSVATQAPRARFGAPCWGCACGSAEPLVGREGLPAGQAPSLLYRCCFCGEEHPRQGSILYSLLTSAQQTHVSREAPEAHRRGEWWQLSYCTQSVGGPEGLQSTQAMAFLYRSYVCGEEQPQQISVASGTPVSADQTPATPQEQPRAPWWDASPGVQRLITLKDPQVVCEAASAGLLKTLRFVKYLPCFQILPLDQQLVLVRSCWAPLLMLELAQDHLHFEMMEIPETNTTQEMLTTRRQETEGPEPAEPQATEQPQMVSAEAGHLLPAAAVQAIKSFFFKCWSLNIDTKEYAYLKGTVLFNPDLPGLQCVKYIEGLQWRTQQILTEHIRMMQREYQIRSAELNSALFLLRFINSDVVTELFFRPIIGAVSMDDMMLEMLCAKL

For the next experiment, the target named is T2, Esrrb-3GS-3xFLAG-C (UniProt Q61539).
T2 sequence: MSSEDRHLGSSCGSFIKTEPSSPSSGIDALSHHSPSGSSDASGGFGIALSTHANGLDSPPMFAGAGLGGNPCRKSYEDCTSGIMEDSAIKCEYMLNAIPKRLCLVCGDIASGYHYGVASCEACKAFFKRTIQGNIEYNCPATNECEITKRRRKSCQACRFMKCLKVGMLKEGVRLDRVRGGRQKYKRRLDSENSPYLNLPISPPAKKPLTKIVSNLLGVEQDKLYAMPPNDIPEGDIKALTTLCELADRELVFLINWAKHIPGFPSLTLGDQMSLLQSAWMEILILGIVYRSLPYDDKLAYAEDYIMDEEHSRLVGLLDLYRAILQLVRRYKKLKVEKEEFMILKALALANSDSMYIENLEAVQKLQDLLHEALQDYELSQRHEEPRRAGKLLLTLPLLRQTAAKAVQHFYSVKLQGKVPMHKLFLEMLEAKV

These are yes or no findings as the source states them, for the method shown. Binding seen in cells or lysates may run through a third protein. These calls come from enrichment with a bait or labelling near it, and not all partners need be listed. For some of these results: No binding means not detected with the bait. For some of these results: Sequences can lack the tags named with a protein.

For the molecule NCor1 (from UniProt Q60974 1-2453), the binding result in experiment [1] is “binds”.
On to Nr5a2 (from UniProt P45448 1-560), for which the binding result with N-3xFLAG-3GS-Dax1 and with Esrrb-3GS-3xFLAG-C was “binds” throughout.

B1: Dax1 (protein, UniProt Q61066 1-472)
chain: T1 sequence
With B1, the binding entry in experiment [1] is “no binding”.
